Measurements reported in PubChem BioAssay AID686937 (Drosophila RNAi Screening Center, 2013)
Screen: 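Knock-downs that reduce output of a secreted reporter enzyme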 (primary screen). System: Drosophila S2 cells expressing secreted horseradish peroxidase. Reagents: long dsRNA against Drosophila genes. Timing: about 5.5 days (5 days dsRNA, then 12 h reporter induction). Conditions: reporter expression induced after 5 days of dsRNA, read 12 h later; inducer not stated. Detection: 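After 5 days of dsRNA and 12 h of reporter induction, medium peroxidase read by chemiluminescence and scored as per-plate z-score; higher values mean more reporter released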. Direction: z-score: higher = more reporter secreted into medium.
The deposit covers about 23,000 reagents; this is a random part of those with a known target gene and a result. 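Reduced-secretion tags in replicate 1 do not always agree with the z-scores; no criterion for assigning the tags was given.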 Names joined by + are all predicted targets of the reagent. Not stated in the record: the amount of reagent.

gene,DRSC id,"z-score, replicate 1","z-score, replicate 2","z-score, replicate 3","z-score, replicate 4","phenotype, replicate 1"
Sox100B,DRSC15090,-0.7,-0.34,,,
Sox100B,DRSC16866,0.29,0.27,,,
CG18581,DRSC10324,0.01,0.06,,,
CG7781,DRSC03068,0.4,0.42,,,
BoYb,DRSC11637,0.41,0.38,,,
SpdS (Spermidine Synthase),DRSC16408,0.41,0.59,,,
ssp (sunspot),DRSC10252,-0.14,-0.26,,,
CG12081,DRSC17802,0.19,0.26,,,
CG10631,DRSC02081,0.04,0.14,,,
Regnase-1 (Regnase 1),DRSC14278,0.31,0.33,,,
CG12107,DRSC06102,0.46,0.48,,,
CG7884,DRSC20065,0.4,0.2,,,
Cyp313a2 (Cytochrome P450 313a2),DRSC16625,0.41,0.17,,,
nerfin-2 (nervous fingers 2),DRSC14547,0.36,0.63,,,
CG12093,DRSC08252,0.1,-0.32,,,
CG12134,DRSC06109,0.47,0.22,,,
CG31678,DRSC02618,-0.23,0.05,,,
CG31678,DRSC02619,0.06,-0.06,,,
CG8839,DRSC07285,0.45,0.31,,,
CG42346,DRSC20622,0.74,0.42,,,
CG42346,DRSC20644,0.28,0.44,,,
CG14657,DRSC12219,0.38,0.56,,,
CG14657,DRSC12243,0.33,0.19,,,
CG7523,DRSC16254,0.42,0.29,,,

8 entries already listed, arranged by “z-score, replicate 1”, descending.
gene,DRSC id,"z-score, replicate 1","z-score, replicate 2","z-score, replicate 3","z-score, replicate 4","phenotype, replicate 1"
CG12107,DRSC06102,0.46,0.48,,,
BoYb,DRSC11637,0.41,0.38,,,
SpdS (Spermidine Synthase),DRSC16408,0.41,0.59,,,
CG7884,DRSC20065,0.4,0.2,,,
Regnase-1 (Regnase 1),DRSC14278,0.31,0.33,,,
CG12081,DRSC17802,0.19,0.26,,,
CG10631,DRSC02081,0.04,0.14,,,
ssp (sunspot),DRSC10252,-0.14,-0.26,,,

Further records:
gene,DRSC id,"z-score, replicate 1","z-score, replicate 2","z-score, replicate 3","z-score, replicate 4","phenotype, replicate 1"
CG43901,DRSC19397,0.04,0.34,,,
CG43901,DRSC19652,-3.35,-1.24,,,
CG43901,DRSC19653,0.12,0.26,0.18,0.27,reduced secretion
CG43901,DRSC22791,0.03,-0.91,,,
Vha36-3 (Vacuolar H[+] ATPase 36kD subunit 3),DRSC18615,0.33,0.36,,,
Lint-O (L(3)mbt interactor in ovarian somatic cells),DRSC18468,0.11,0.33,,,
CG5541,DRSC19946,0.16,0.32,,,
Lamtor2 + CG30120,DRSC05726,0.5,0.51,,,
Lamtor2 + CG30120,DRSC06922,-0.37,-0.4,,,
CG32576,DRSC19136,-1.92,-1.16,,,reduced secretion
Srg1 (Sting-regulated gene 1),DRSC14640,0.27,0.25,,,
TBC1D16 (TBC1 domain family member 16),DRSC02841,0.09,-0.01,,,
Cyp6d5 (Cytochrome P450 6d5),DRSC16634,0.27,0.21,,,
Obp56g (Odorant-binding protein 56g),DRSC06432,0.11,0.09,,,
e (ebony),DRSC16936,0.1,0.29,,,
CG43333,DRSC01917,0.5,0.61,,,
eIF1A (eukaryotic translation initiation factor 1A),DRSC16937,-2.56,-3.45,,,reduced secretion
CG15712,DRSC06583,0.12,0.08,,,
CG7080,DRSC16193,0.43,0.44,,,
dgt5 (dim gamma-tubulin 5),DRSC07280,0.51,0.42,,,
CG31467,DRSC16048,-0.01,-0.03,,,
IntS4 (Integrator 4),DRSC17810,1.01,0.86,,,
CG6674,DRSC10692,0.47,0.25,,,
MED4 (Mediator complex subunit 4),DRSC11014,-5.5,-4.23,,,reduced secretion
yuri (yuri gagarin),DRSC01453,-1.37,-0.4,,,
yuri (yuri gagarin),DRSC01454,-0.44,0.31,,,
yuri (yuri gagarin),DRSC01943,0.64,0.25,,,
yuri (yuri gagarin),DRSC01972,0.36,0.3,,,
CG17636,DRSC20648,0.42,0.22,,,
a (arc),DRSC04667,0.3,-0.38,,,
a (arc),DRSC04668,0.54,0.41,,,
CG11786,DRSC14389,0.27,0.18,,,
